Results deposited as PubChem BioAssay AID1259254 (NCATS, 2017)

- Purpose: 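Finding genes that stop cells copying their DNA twice in one cycle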 (primary screen)
- Cells: human HCT116 colorectal cancer cells
- Reagent: single siRNA against human genes
- Duration: 3 days
- Read-out: 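Imaged Hoechst DNA stain sorts each cell into a cycle phase by DNA amount; per plate, G2 fraction set to 0% for non-targeting and 100% for GMNN siRNA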
- Reading the numbers: G2 robust z-score and G2 cells, % of GMNN control: higher = more G2 cells, more excess DNA replication; raw share of cells in G2: higher = larger share of cells with G2 DNA content
- Hit rule: 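Active siRNAs have a G2 robust z of 5 or more median absolute deviations over the median, which in these data means about 38% or higher of GMNN control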
The deposit covers about 59,000 reagents; below is a random part of them. About 1,550 of them (2.6%) count as active. 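G2 share is only a proxy for re-replication; each gene was hit by three separate siRNAs, and active genes were retested.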 The raw values are shown without normalisation. Entries without a mark were called inactive. The numbers tell different reagents against one gene apart. Not stated in the record: the amount of reagent.

The first 5 records as a preview:
| Target gene | reagent | G2 robust z-score | G2 cells, % of GMNN control | raw share of cells in G2 (%) |
| --- | --- | --- | --- | --- |
| C10orf67 | 1 | 0.929 | 9.51 | 7.02 |
| C10orf67 | 2 | -0.453 | -0.222 | 3.05 |
| C10orf67 | 3 | -0.718 | -2.09 | 2.53 |
| C10orf67 | 4 | -0.0839 | 2.38 | 4.59 |
| C10orf67 | 5 | -0.386 | 0.251 | 3.51 |

The list itself, from the start:
| Target gene | reagent | G2 robust z-score | G2 cells, % of GMNN control | raw share of cells in G2 (%) |
| --- | --- | --- | --- | --- |
| C10orf67 | 1 | 0.929 | 9.51 | 7.02 |
| C10orf67 | 2 | -0.453 | -0.222 | 3.05 |
| C10orf67 | 3 | -0.718 | -2.09 | 2.53 |
| C10orf67 | 4 | -0.0839 | 2.38 | 4.59 |
| C10orf67 | 5 | -0.386 | 0.251 | 3.51 |
| C10orf67 | 6 | -0.283 | 0.98 | 5.05 |
| ACSF2 | 1 | 0.466 | 6.24 | 7.04 |
| ACSF2 | 2 | -0.251 | 1.2 | 4.83 |
| ACSF2 | 3 | -0.849 | -3.01 | 1.56 |
| PDE4B | 1 | -0.987 | -3.98 | 2.3 |
| PDE4B | 2 | 0.766 | 8.35 | 6.82 |
| PDE4B | 3 | -0.925 | -3.54 | 3.64 |
| INAVA | 1 | -0.167 | 1.79 | 3.71 |
| INAVA | 2 | 1.17 | 11.2 | 8.83 |
| INAVA | 3 | -0.119 | 2.13 | 5.02 |
| CEACAM20 | 1 | -0.0765 | 2.43 | 5.07 |
| CEACAM20 | 2 | -0.676 | -1.79 | 2.8 |
| CEACAM20 | 3 | 0.898 | 9.28 | 4.53 |
| KIF24 | 1 | -1.29 | -6.08 | 1.9 |
| KIF24 | 2 | -0.354 | 0.477 | 3.47 |
| KIF24 | 3 | -0.711 | -2.04 | 3.37 |
| COL5A1 | 1 | 0.195 | 4.34 | 5.18 |
| COL5A1 | 2 | -0.104 | 2.24 | 5.89 |
| COL5A1 | 3 | 2.78 | 22.5 | 11.3 |
| FRS2 | 1 | 5.05 (active) | 38.5 | 20.1 |
| FRS2 | 2 | 3.64 | 28.6 | 15.9 |
| FRS2 | 3 | -0.256 | 1.17 | 3.61 |
| GIMAP7 | 1 | -0.466 | -0.314 | 3.49 |
| GIMAP7 | 2 | -0.446 | -0.173 | 2.9 |
| GIMAP7 | 3 | 0.556 | 6.88 | 4.94 |
| RFXAP | 1 | 8.47 (active) | 62.6 | 31.6 |
| RFXAP | 2 | 0.057 | 3.37 | 5.55 |
| RFXAP | 3 | -0.778 | -2.5 | 2.45 |
| GNPDA2 | 1 | 1.33 | 12.3 | 9.89 |
| GNPDA2 | 2 | -0.182 | 1.69 | 6.76 |
| GNPDA2 | 3 | 1.63 | 14.5 | 10 |
| ABHD14B | 1 | 2.84 | 23 | 13.3 |
| ABHD14B | 2 | 1.46 | 13.2 | 8.99 |
| ABHD14B | 3 | -1.35 | -6.52 | 2.71 |
| NDUFA3P3 | 1 | -0.104 | 2.24 | 3.8 |
| NDUFA3P3 | 2 | -0.0899 | 2.33 | 4.53 |
| NDUFA3P3 | 3 | -0.517 | -0.669 | 3.03 |
| WDR25 | 1 | 4.63 | 35.5 | 20 |
| WDR25 | 2 | -0.0348 | 2.72 | 5.83 |
| WDR25 | 3 | -0.613 | -1.34 | 2.34 |
| AGK | 1 | -0.848 | -3 | 4.65 |
| AGK | 2 | -0.549 | -0.893 | 4.87 |
| AGK | 3 | -0.917 | -3.48 | 2.57 |
| GSG1 | 1 | 0.467 | 6.26 | 6.19 |
| GSG1 | 2 | 0.279 | 4.93 | 4.92 |
| GSG1 | 3 | -0.751 | -2.31 | 1.7 |
| LRCH1 | 1 | -0.847 | -2.99 | 3.81 |
| LRCH1 | 2 | 1.31 | 12.2 | 9.15 |
| LRCH1 | 3 | -0.161 | 1.84 | 3.86 |
| MAPK13 | 1 | -1.36 | -6.63 | 3.42 |
| MAPK13 | 2 | -1.03 | -4.28 | 3.97 |
| MAPK13 | 3 | -0.345 | 0.542 | 4.22 |
| EVA1B | 1 | 0.0025 | 2.98 | 5.38 |
| EVA1B | 2 | -0.891 | -3.3 | 2.08 |
| EVA1B | 3 | 0.124 | 3.84 | 6 |
| RBPMS | 1 | 4.58 | 35.2 | 15.2 |
| RBPMS | 2 | -0.753 | -2.33 | 5.56 |
| RBPMS | 3 | -1.28 | -6.03 | 3.07 |
| ZNF354A | 1 | -0.439 | -0.123 | 3.41 |
| ZNF354A | 2 | 0.151 | 4.03 | 6.73 |
| ZNF354A | 3 | 1.37 | 12.6 | 7.68 |
| SYNE2 | 1 | 1.63 | 14.5 | 10.7 |
| SYNE2 | 2 | 0.599 | 7.18 | 7.1 |
| SYNE2 | 3 | -0.801 | -2.67 | 2.18 |
